The supplement of paper PMC10849652
Some of the results follow. Residues, ends and D or L forms follow the SMILES beside them. *: point of attachment. Cbz = O=C(OCc1ccccc1)*

Protein sequences, listed by entry. Tags and fused reporters are not part of them. Lines headed by an entry give the natural chain unless they say otherwise; changes in a name come on top.
UniProt Q13505: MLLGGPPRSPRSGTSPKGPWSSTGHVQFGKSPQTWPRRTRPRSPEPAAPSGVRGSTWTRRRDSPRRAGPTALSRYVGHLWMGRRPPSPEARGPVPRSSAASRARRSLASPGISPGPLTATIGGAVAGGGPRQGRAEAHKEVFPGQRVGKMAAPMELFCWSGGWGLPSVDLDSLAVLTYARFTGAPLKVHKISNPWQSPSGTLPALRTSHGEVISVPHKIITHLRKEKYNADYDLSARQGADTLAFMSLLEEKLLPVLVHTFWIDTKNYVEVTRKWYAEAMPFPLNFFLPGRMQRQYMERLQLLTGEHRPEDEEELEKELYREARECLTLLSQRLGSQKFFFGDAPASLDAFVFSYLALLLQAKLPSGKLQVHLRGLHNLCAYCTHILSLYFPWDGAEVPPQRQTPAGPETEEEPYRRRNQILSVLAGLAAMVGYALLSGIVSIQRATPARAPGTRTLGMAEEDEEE
UniProt Q13615: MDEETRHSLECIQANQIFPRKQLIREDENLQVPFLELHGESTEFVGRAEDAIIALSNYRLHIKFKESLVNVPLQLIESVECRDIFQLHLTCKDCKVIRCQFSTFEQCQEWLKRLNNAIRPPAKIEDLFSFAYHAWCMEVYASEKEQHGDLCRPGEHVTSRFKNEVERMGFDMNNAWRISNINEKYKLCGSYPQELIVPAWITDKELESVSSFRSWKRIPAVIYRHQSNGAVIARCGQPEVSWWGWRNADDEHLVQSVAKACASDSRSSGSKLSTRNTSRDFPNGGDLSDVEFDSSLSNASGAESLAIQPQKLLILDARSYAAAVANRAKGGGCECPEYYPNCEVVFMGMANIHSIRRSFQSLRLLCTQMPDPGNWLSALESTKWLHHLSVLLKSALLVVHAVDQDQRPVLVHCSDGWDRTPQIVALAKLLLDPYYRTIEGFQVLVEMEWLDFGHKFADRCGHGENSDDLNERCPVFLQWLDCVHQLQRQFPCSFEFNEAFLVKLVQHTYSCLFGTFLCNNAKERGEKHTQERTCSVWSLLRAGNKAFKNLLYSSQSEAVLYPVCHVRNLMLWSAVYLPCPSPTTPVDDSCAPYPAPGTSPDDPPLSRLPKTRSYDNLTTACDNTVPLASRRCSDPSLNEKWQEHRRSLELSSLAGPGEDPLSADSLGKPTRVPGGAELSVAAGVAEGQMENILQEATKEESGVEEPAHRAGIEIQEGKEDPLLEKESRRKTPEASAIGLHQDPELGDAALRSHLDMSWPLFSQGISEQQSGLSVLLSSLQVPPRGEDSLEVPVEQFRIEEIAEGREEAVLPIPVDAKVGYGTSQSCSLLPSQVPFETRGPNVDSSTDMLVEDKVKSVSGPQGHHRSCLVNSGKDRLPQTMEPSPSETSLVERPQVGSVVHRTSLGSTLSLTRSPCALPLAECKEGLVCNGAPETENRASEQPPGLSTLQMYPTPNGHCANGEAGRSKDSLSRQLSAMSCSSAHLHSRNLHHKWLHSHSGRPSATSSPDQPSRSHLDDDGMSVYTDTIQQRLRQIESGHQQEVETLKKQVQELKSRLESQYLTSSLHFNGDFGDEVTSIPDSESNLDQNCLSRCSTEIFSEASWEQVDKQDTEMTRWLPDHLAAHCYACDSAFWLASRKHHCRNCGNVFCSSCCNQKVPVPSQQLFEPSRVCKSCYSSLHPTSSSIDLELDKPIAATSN
UniProt P03915, whole entry, looked up: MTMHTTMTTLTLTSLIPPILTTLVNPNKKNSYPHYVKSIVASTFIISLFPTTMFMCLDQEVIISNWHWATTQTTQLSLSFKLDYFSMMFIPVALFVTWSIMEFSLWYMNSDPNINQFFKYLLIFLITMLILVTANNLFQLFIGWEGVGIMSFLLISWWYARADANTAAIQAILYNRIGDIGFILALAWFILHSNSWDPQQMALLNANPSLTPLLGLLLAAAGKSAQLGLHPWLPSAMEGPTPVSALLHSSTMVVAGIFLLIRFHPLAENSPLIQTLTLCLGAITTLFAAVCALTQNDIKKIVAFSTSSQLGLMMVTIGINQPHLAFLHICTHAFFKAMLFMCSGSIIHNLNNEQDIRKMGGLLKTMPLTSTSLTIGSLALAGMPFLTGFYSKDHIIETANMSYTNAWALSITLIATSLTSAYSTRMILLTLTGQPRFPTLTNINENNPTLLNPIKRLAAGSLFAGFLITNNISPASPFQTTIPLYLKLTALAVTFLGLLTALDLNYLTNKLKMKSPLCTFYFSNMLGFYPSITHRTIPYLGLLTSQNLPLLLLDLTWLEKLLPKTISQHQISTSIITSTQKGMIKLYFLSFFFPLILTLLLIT
UniProt P00156: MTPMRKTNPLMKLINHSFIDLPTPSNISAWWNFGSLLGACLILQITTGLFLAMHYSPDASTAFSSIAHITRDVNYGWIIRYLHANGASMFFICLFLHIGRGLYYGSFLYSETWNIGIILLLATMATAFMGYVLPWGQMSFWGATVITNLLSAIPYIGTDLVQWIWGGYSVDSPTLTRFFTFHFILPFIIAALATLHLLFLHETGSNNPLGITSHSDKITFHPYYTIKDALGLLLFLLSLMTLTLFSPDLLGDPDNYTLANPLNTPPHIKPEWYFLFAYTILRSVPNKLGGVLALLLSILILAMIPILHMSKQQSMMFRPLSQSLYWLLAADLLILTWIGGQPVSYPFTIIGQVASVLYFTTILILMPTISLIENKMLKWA
UniProt Q96DH6: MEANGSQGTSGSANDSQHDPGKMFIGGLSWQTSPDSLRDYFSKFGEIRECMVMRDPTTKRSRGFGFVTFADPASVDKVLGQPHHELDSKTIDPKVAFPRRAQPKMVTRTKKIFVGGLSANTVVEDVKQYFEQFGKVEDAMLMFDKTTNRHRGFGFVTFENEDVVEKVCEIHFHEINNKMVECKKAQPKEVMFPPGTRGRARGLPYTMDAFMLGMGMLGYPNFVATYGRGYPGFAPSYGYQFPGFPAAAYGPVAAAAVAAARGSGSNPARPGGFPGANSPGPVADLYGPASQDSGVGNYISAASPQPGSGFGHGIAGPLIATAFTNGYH
UniProt P00403, whole entry, looked up: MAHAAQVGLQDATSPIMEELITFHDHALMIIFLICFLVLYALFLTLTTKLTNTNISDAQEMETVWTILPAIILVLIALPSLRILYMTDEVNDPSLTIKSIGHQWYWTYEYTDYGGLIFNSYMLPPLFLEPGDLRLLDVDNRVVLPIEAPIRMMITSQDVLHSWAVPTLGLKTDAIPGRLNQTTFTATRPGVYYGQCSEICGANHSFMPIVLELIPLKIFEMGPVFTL
UniProt Q13330: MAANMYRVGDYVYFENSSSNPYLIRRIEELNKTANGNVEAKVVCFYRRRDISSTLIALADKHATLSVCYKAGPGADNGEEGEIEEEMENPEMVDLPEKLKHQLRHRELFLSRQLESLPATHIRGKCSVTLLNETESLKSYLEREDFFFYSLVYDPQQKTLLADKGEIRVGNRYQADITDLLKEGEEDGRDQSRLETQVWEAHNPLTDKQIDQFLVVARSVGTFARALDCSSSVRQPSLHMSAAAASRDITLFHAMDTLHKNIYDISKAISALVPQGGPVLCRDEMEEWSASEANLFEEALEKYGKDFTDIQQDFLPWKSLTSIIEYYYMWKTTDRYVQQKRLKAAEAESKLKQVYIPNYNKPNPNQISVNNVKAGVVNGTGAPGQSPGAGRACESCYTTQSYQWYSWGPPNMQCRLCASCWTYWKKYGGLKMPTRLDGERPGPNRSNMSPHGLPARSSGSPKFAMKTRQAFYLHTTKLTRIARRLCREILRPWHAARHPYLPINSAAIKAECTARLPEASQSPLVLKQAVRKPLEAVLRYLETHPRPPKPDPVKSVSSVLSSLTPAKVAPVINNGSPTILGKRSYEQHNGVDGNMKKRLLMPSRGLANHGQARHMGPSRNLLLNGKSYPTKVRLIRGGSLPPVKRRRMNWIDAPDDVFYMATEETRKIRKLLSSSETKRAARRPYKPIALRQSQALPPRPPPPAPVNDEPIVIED
UniProt Q9HD23: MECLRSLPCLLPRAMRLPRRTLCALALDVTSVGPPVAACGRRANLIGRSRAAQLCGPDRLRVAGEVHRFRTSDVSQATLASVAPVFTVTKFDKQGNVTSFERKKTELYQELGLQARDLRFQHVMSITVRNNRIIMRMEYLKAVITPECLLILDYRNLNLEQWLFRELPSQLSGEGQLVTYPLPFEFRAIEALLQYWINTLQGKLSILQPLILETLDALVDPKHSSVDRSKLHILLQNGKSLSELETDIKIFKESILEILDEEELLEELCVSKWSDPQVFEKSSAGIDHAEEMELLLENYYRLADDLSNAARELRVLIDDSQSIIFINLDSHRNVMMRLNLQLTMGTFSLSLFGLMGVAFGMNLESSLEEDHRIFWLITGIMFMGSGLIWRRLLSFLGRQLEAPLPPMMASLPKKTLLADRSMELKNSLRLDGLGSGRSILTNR
UniProt O94832: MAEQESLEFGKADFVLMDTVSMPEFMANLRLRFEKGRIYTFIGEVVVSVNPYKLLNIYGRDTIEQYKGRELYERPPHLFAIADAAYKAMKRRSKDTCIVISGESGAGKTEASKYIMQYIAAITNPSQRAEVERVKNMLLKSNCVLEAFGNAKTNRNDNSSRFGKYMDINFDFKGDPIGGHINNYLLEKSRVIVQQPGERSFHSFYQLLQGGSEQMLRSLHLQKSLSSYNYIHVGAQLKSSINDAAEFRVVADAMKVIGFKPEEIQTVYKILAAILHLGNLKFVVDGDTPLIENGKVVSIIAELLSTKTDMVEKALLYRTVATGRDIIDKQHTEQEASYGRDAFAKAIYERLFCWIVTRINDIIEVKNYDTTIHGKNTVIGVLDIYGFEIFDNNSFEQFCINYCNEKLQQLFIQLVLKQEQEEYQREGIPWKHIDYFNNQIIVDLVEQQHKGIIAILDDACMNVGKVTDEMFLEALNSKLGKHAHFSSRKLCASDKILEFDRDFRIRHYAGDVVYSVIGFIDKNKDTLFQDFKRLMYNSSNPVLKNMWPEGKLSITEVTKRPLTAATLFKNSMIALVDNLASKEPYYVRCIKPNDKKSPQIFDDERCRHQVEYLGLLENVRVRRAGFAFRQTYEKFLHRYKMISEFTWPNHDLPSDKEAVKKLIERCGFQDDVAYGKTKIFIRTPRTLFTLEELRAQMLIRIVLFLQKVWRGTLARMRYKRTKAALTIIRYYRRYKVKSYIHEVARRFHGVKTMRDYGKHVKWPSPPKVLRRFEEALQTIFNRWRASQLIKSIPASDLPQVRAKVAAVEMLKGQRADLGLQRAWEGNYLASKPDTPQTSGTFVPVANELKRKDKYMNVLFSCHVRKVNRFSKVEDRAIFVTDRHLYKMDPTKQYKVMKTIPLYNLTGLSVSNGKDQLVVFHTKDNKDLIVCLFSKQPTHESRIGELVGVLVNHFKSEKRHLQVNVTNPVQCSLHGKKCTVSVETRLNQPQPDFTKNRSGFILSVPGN
UniProt Q6UB35, whole entry, looked up: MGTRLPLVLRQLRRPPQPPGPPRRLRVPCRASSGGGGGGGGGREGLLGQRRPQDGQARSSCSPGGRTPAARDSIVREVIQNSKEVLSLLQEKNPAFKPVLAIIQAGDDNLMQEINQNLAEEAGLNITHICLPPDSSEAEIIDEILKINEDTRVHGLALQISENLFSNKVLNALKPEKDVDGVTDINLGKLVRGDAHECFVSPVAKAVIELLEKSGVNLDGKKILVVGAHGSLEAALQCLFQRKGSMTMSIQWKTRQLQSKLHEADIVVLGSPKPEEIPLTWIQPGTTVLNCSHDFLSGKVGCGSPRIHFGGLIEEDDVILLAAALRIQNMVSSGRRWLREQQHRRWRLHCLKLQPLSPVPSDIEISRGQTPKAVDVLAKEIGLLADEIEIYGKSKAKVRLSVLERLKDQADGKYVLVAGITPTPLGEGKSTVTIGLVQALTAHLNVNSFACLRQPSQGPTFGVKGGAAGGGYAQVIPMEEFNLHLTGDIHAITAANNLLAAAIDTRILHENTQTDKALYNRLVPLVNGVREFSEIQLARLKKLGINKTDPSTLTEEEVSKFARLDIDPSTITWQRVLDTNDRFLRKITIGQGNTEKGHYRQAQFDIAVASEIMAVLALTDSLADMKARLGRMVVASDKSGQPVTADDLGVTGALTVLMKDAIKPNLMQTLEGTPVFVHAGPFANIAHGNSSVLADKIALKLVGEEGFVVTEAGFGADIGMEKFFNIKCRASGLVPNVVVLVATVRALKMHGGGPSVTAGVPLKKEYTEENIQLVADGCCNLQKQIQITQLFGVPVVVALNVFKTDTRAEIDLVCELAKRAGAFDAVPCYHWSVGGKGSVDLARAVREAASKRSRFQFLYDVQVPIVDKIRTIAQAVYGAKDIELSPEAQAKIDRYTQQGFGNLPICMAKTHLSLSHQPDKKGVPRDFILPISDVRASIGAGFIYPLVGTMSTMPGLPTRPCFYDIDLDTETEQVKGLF

How the values were obtained:
Assay in all cases: log2 fold change, soluble protein after heating vs DMSO (PISA); higher = thermal stabilisation; K562 cells, 10 uM, 30 min; active = over 0.2 and 3.5 SD of the protein, either way, in both replicates (recomputed)
[1] = compound: C1COCCN1CCN2C3=CC=CC=C3N=C2NC(=O)C4=CC(=CC=C4)[N+](=O)[O-] [IRAK-1-4 Inhibitor I]
Outline: (§1)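 Thermal stability values are relative to control samples and come from duplicates. They are expressed as log2 fold changes. For measurement, K562 cells (2×10^6 cells/mL) received 10 μM compound for 30 min, and aliquots were heated for 3 min over 48°C-58°C, pooled, and extracted at 4°C in PBS with 0.5% NP-40. Soluble protein, the supernatant after 21,000xg for 90 min, was quantified by TMTpro 16plex LC-MS/MS with equalised channel sums.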

[2] = compound: C=CC(=O)N1CCC[C@@H](n2nc(-c3ccc(Oc4ccccc4)cc3)c3c(N)ncnc32)C1 [ibrutinib]
Outline: as §1

[3] = compound: CC(=O)c1cnc2ccc(-c3cc(Cl)c(O)c(Cl)c3)nc2c1N[C@H]1CC[C@H](CN(C)C)CC1
Outline: as §1

[4] = compound: CC(C)(C)Cn1c(N)nc2ccc(-c3[nH]c(C(C)(C)C)nc3-c3ccc(F)cc3)nc21 [ralimetinib]
Outline: as §1

[5] = compound: CC(C)(O)CC(=O)NCCn1ccc2ncnc(Nc3ccc(Oc4cccc(C(F)(F)F)c4)c(Cl)c3)c21
Outline: as §1

[6] = compound: CC(C)C1=C2N=C(C=C(N2N=C1)NCC3=CC=CC=C3)NCCCCCCN
Outline: as §1

[7] = compound: CC(C)C[C@@H](C=O)NC(=O)[C@H](CC(C)C)NC(=O)[C@H](CC(C)C)NC(=O)OCc1ccccc1
Outline: as §1

[8] = compound: CC(C)N(C[C@H]1O[C@@H](n2cnc3c(N)ncnc32)[C@H](O)[C@@H]1O)[C@H]1C[C@@H](CCc2nc3cc(C(C)(C)C)ccc3[nH]2)C1 [pinometostat]
Outline: as §1

[9] = compound: CC1=C(C(CC(=O)N1)C2=CC=C(C=C2)C(F)(F)F)C(=O)NC3=C(C=C4C(=C3)C=NN4)F
Outline: as §1

[10] = compound: CC1=C(C2=C(C=C1)C(=O)C3=CC=CC=C3N2CCCN)C
Outline: as §1

[11] = compound: CC1=C(C=C(C=C1)NC(=O)C2=CC(=CC=C2)C(C)(C)C#N)NC3=CC4=C(C=C3)N=CN(C4=O)C
Outline: as §1

[12] = compound: CC1=C(C=C(C=C1)NC(=O)C2=CC(=CC=C2)N(C)C)NC(=O)C3=CC=C(C=C3)O
Outline: as §1

[13] = compound: CC1=CC=C(C=C1)SC2=C3C=C(SC3=CN=C2)C(=O)N
Outline: as §1

[14] = compound: CC1=NC(=CC=C1)C2=C(N=C(N2)C(C)(C)C)C3=CC4=NC=CN=C4C=C3
Outline: as §1

[15] = compound: CCCCN(Cc1ccc(C(=O)NO)cc1)C(=O)Nc1ccccc1 [Nexturastat A]
Outline: as §1

[16] = compound: CCCS(=O)(=O)Nc1ccc(F)c(C(=O)c2c[nH]c3ncc(-c4ccc(Cl)cc4)cc23)c1F [vemurafenib]
Outline: as §1

[17] = compound: CCCS(=O)(=O)Nc1ccc(F)c(C(=O)c2c[nH]c3ncc(Cl)cc23)c1F
Outline: as §1

[18] = compound: CCCc1cc(C)[nH]c(=O)c1CNC(=O)c1cc(-c2ccnc(N3CCN(C)CC3)c2)cc2c1cnn2C(C)C
Outline: as §1

[19] = compound: CCN(CC)Cc1ccc2cc(COC(=O)Nc3ccc(C(=O)NO)cc3)ccc2c1 [givinostat]
Outline: as §1

[20] = compound: CCN(CCCOc1ccc2c(Nc3cc(CC(=O)Nc4cccc(F)c4)[nH]n3)ncnc2c1)CCOP(=O)(O)O [barasertib]
Outline: as §1

Measured: log2 fold change

MTX1 (UniProt Q13505)
inactive: [1] 0.024 | [2] 0.015 | [3] -0.011 | [4] -0.068 | [5] -0.012 | [6] 0.079 | [7] 0.013 | [8] -0.024 | [9] -0.021 | [10] 0.007 | [11] -0.004 | [12] -0.019 | [13] -0.004 | [14] 0.02 | [15] -0.099 | [16] 0.057 | [17] -0.032 | [18] -0.028 | [19] -0.035 | [20] 0.019

MTMR3 (UniProt Q13615)
inactive: [1] 0.005 | [2] -0.204 | [3] -0.056 | [4] 0.001 | [5] -0.069 | [6] 0.019 | [7] 0.033 | [8] -0.019 | [9] 0.016 | [10] 0.016 | [11] 0.031 | [12] -0.032 | [13] 0.054 | [14] 0.074 | [15] 0.014 | [16] 0.011 | [17] 0.098 | [18] -0.073 | [19] -0.02 | [20] 0.052

MRPS28 (UniProt Q9Y2Q9)
inactive: [1] -0.036 | [2] 0.033 | [3] 0.003 | [4] 0.038 | [5] 0.015 | [6] 0.032 | [7] 0.262 | [8] 0.016 | [9] 0.013 | [10] -0.137 | [11] 0.08 | [12] -0.042 | [13] -0.042 | [14] -0.017 | [15] 0.238 | [16] 0.055 | [17] 0.001 | [18] 0.002 | [19] 0.037 | [20] -0.104

MRPS34 (UniProt P82930)
inactive: [1] -0.141 | [2] -0.007 | [3] -0.024 | [4] -0.033 | [5] -0.091 | [6] -0.129 | [7] -0.022 | [8] 0.046 | [9] -0.07 | [10] -0.041 | [11] 0.057 | [12] -0.039 | [13] 0.021 | [14] -0.037 | [15] 0.08 | [16] 0.011 | [17] 0.037 | [18] 0.171 | [19] 0.173 | [20] -0.06

MT-ND5 (UniProt P03915)
inactive: [1] 0.056 | [2] 0.031 | [3] -0.006 | [4] -0.042 | [5] -0.027 | [6] 0.032 | [7] -0.087 | [8] 0.024 | [9] -0.025 | [10] 0.111 | [11] -0.059 | [12] 0.046 | [13] 0.17 | [14] -0.019 | [15] -0.02 | [16] -0.007 | [17] 0.199 | [18] -0.006 | [19] -0.013 | [20] -0.024

MT-CYB (UniProt P00156)
inactive: [1] -0.011 | [2] -0.013 | [3] -0.16 | [4] -0.143 | [5] -0.026 | [6] 0.038 | [7] 0.009 | [8] -0.077 | [9] -0.131 | [10] 0.091 | [11] 0.012 | [12] 0.088 | [13] -0.026 | [14] 0.015 | [15] -0.094 | [16] 0.03 | [17] 0.14 | [18] -0.262 | [19] -0.028 | [20] -0.206

MSI2 (UniProt Q96DH6)
inactive: [1] -0.1 | [2] 0.103 | [3] -0.031 | [4] 0.017 | [5] 0.03 | [6] -0.015 | [7] 0.132 | [8] 0.036 | [9] 0.018 | [10] -0.059 | [11] 0.067 | [12] 0.032 | [13] -0.027 | [14] 0.021 | [15] 0.102 | [16] 0.041 | [17] 0.03 | [18] 0.021 | [19] -0.031 | [20] -0.009

MT-CO2 (UniProt P00403)
inactive: [1] 0.053 | [2] -0.075 | [3] -0.059 | [4] -0.188 | [5] -0.028 | [6] -0.073 | [7] -0.071 | [8] 0.009 | [9] -0.026 | [10] -0.022 | [11] 0.028 | [12] -0.022 | [13] -0.066 | [14] -0.076 | [15] -0.142 | [16] 0.062 | [17] 0.005 | [18] -0.02 | [19] -0.026 | [20] -0.043

MRPS18A isoform 2 (UniProt Q9NVS2)
inactive: [1] -0.066 | [2] -0.021 | [3] 0.041 | [4] 0.064 | [5] 0.024 | [6] -0.021 | [7] 0.02 | [8] 0.144 | [9] -0.051 | [10] -0.064 | [11] 0.004 | [12] -0.029 | [13] -0.065 | [14] -0.054 | [15] 0.155 | [16] -0.085 | [17] -0.15 | [18] 0.063 | [19] 0.258 | [20] -0.024

MRPS23 (UniProt Q9Y3D9)
inactive: [1] -0.043 | [2] 0.068 | [3] -0.007 | [4] -0.005 | [5] -0.029 | [6] -0.12 | [7] 0.03 | [8] 0.032 | [9] -0.041 | [10] -0.115 | [11] 0.053 | [12] -0.046 | [13] -0.001 | [14] 0.031 | [15] -0.042 | [16] -0.002 | [17] -0.019 | [18] -0.172 | [19] 0.068 | [20] 0.096

MTREX (UniProt P42285)
inactive: [1] 0.016 | [2] -0.03 | [3] -0.016 | [4] -0.04 | [5] -0.026 | [6] -0.044 | [7] 0.008 | [8] -0.013 | [9] -0.024 | [10] 0.073 | [11] -0.028 | [12] -0.026 | [13] 0.007 | [14] 0.011 | [15] 0 | [16] -0.008 | [17] 0.016 | [18] -0.02 | [19] 0.015 | [20] 0.015

MTA1 (UniProt Q13330)
inactive: [1] -0.025 | [2] -0.023 | [3] -0.188 | [4] -0.012 | [5] -0.072 | [6] -0.101 | [7] 0.025 | [8] 0.027 | [9] -0.003 | [10] -0.201 | [11] 0 | [12] -0.001 | [13] 0.012 | [14] -0.031 | [15] -0.055 | [16] 0.126 | [17] 0 | [18] 0.033 | [19] 0.049 | [20] 0.05

MRPS7 (UniProt Q9Y2R9)
inactive: [1] -0.083 | [2] 0.043 | [3] -0.004 | [4] -0.019 | [5] -0.024 | [6] -0.021 | [7] 0.078 | [8] 0.025 | [9] -0.05 | [10] -0.107 | [11] 0.03 | [12] -0.045 | [13] 0.025 | [14] 0.012 | [15] 0.218 | [16] -0.013 | [17] 0.016 | [18] 0.094 | [19] 0.059 | [20] -0.022

MRS2 (UniProt Q9HD23)
inactive: [1] 0.001 | [2] 0.003 | [3] 0.022 | [4] 0.036 | [5] -0.014 | [6] 0.043 | [7] -0.055 | [8] -0.018 | [9] 0.006 | [10] 0.016 | [11] 0.037 | [12] 0.011 | [13] 0.003 | [14] 0.017 | [15] -0.02 | [16] -0.016 | [17] 0.051 | [18] -0.046 | [19] -0.019 | [20] -0.031

Fetched one by one from the list above (2):
MRPS7 (UniProt Q9Y2R9)
inactive: [1] -0.083 | [2] 0.043 | [3] -0.004 | [4] -0.019 | [5] -0.024 | [6] -0.021 | [7] 0.078 | [8] 0.025 | [9] -0.05 | [10] -0.107 | [11] 0.03 | [12] -0.045 | [13] 0.025 | [14] 0.012 | [15] 0.218 | [16] -0.013 | [17] 0.016 | [18] 0.094 | [19] 0.059 | [20] -0.022

MTREX (UniProt P42285)
inactive: [1] 0.016 | [2] -0.03 | [3] -0.016 | [4] -0.04 | [5] -0.026 | [6] -0.044 | [7] 0.008 | [8] -0.013 | [9] -0.024 | [10] 0.073 | [11] -0.028 | [12] -0.026 | [13] 0.007 | [14] 0.011 | [15] 0 | [16] -0.008 | [17] 0.016 | [18] -0.02 | [19] 0.015 | [20] 0.015

Continuation:

MYO1D (UniProt O94832)
inactive: [1] 0.034 | [2] 0.09 | [3] 0.006 | [4] 0.169 | [5] 0 | [6] -0.192 | [7] 0.161 | [8] 0.206 | [9] -0.029 | [10] -0.153 | [11] 0.105 | [12] 0.042 | [13] -0.008 | [14] -0.02 | [15] 0.239 | [16] 0.006 | [17] 0.012 | [18] 0.157 | [19] 0.057 | [20] -0.037

MTHFD1L (UniProt Q6UB35)
inactive: [1] 0.024 | [2] -0.019 | [3] -0.067 | [4] -0.037 | [5] -0.039 | [6] -0.003 | [7] 0.003 | [8] -0.05 | [9] -0.01 | [10] 0.063 | [11] -0.012 | [12] -0.014 | [13] 0.005 | [14] 0.021 | [15] -0.03 | [16] 0.029 | [17] 0.028 | [18] -0.024 | [19] -0.011 | [20] 0.027
